In patent US9023986B2 (Hoffmann-La Roche Inc., priority 2010, dated 2015):

Experiments:
[1] = general procedure: Fmoc solid-phase peptide synthesis; Fmoc Rink Amide MBHA resin; HBTU or DIC, HOBT added; conditions: whole synthesis, scale 0.25 mmol
[2] = general procedure: Fmoc solid-phase peptide synthesis; Fmoc Rink Amide MBHA resin (0.45 meq/g); Fmoc Gln(Trt) Wang resin; HBTU or DIC, HOBT added; conditions: conjugation step, TFA; for final HPLC purity: 280 nm

Substance | isolated mass ([1]; 1:2 TFA) | isolated yield ([1]; 1:2 TFA) | other results
Ac-2-Cl-(D)Phe-Ala-Glu-Gly-Thr-Phe-Ile-Ser-Asp-Tyr-Ser-Ile-Ala-Met-Asp-Lys-Ile-His-Gln-Gln-Asp-Phe-Val-Asn-Trp-Leu-Leu-Ala-Gln-Lys-NH2 | 94 mg | 9.7% | 
Ac-2-F-(D)Phe-Ala-Glu-Gly-Thr-Phe-Ile-Ser-Asp-Tyr-Ser-Ile-Ala-Met-Asp-Lys-Ile-His-Gln-Gln-Asp-Phe-Val-Asn-Trp-Leu-Leu-Ala-Gln-Lys-NH2 | 92 mg | 9.5% | 
Ac-3,4,5,F3-(D)Phe-Ala-Glu-Gly-Thr-Phe-Ile-Ser-Asp-Tyr-Ser-Ile-Ala-Met-Asp-Lys-Ile-His-Gln-Gln-Asp-Phe-Val-Asn-Trp-Leu-Leu-Ala-Gln-Lys-NH2 | 30 mg | 3% | 
Ac-3,5-DiF-(D)Phe-Ala-Glu-Gly-Thr-Phe-Ile-Ser-Asp-Tyr-Ser-Ile-Ala-Met-Asp-Lys-Ile-His-Gln-Gln-Asp-Phe-Val-Asn-Trp-Leu-Leu-Ala-Gln-Lys-NH2 | 64 mg | 6.6% | 
Ac-3-Cl-(D)Phe-Ala-Glu-Gly-Thr-Phe-Ile-Ser-Asp-Tyr-Ser-Ile-Ala-Met-Asp-Lys-Ile-His-Gln-Gln-Asp-Phe-Val-Asn-Trp-Leu-Leu-Ala-Gln-Lys-NH2 | 70 mg | 7.2% | 
Ac-3-F-(D)Phe-Ala-Glu-Gly-Thr-Phe-Ile-Ser-Asp-Tyr-Ser-Ile-Ala-Met-Asp-Lys-Ile-His-Gln-Gln-Asp-Phe-Val-Asn-Trp-Leu-Leu-Ala-Gln-Lys-NH2 | 100 mg | 10.4% | 
Ac-4-Cl-(D)Phe-Ala-Glu-Gly-Thr-Phe-Ile-Ser-Asp-Tyr-Ser-Ile-Ala-Met-Asp-Lys-Ile-His-Gln-Gln-Asp-Phe-Val-Asn-Trp-Leu-Leu-Ala-Gln-Lys-NH2 | 96 mg | 10% | 
Ac-(D)-3-Pya-Ala-Glu-Gly-Thr-Phe-Ile-Ser-Asp-Tyr-Ser-Ile-Ala-Met-Asp-Lys-Ile-His-Gln-Gln-Asp-Phe-Val-Asn-Trp-Leu-Leu-Ala-Gln-Lys-NH2 | 40 mg | 4% | 
Ac-(D)Phe-Ala-Glu-Gly-Thr-Phe-Ile-Ser-Asp-Tyr-Ser-Ile-Ala-Met-Asp-Lys-Ile-His-Gln-Gln-Asp-Phe-Val-Asn-Trp-Leu-Leu-Ala-Gln-Lys-NH2 | 80 mg | 8.3% | 
Ac-(D)Trp-Ala-Glu-Gly-Thr-Phe-Ile-Ser-Asp-Tyr-Ser-Ile-Ala-Met-Asp-Lys-Ile-His-Gln-Gln-Asp-Phe-Val-Asn-Trp-Leu-Leu-Ala-Gln-Lys-NH2 | 62 mg | 6.4% | 
Ac-(D)Tyr-Ala-Glu-Gly-Thr-Phe-Ile-Ser-Asp-Tyr-Ser-Ile-Ala-Met-Asp-Ala-Ile-His-Gln-Gln-Asp-Phe-Val-Asn-Trp-Leu-Leu-Ala-Gln-Lys (epsilon-SSA-PEGm(12,000))-NH2 (YAEGTFISDYSIAMDAIHQQDFVNWLLAQK; acetyl, amide, D-residue, PEG 12kDa) |  |  | final HPLC purity [2]: >98%; conjugation yield [2]: 38.1%
Ac-(D)Tyr-Ala-Glu-Gly-Thr-Phe-Ile-Ser-Asp-Tyr-Ser-Ile-Ala-Met-Asp-Ala-Ile-His-Gln-Gln-Asp-Phe-Val-Asn-Trp-Leu-Leu-Ala-Gln-Lys (epsilon-SSA-PEGm(20,000))-NH2 (YAEGTFISDYSIAMDAIHQQDFVNWLLAQK; acetyl, amide, D-residue, PEG 20kDa) |  |  | final HPLC purity [2]: >98%; conjugation yield [2]: 54.9%
Ac-(D)Tyr-Ala-Glu-Gly-Thr-Phe-Ile-Ser-Asp-Tyr-Ser-Ile-Ala-Met-Asp-Ala-Ile-His-Gln-Gln-Asp-Phe-Val-Asn-Trp-Leu-Leu-Ala-Gln-Lys (epsilon-SSA-PEGm(30,000))-NH2 (YAEGTFISDYSIAMDAIHQQDFVNWLLAQK; acetyl, amide, D-residue, PEG 30kDa) |  |  | final HPLC purity [2]: >98%; conjugation yield [2]: 85.0%
Ac-[dY]AEGTFISDYSIAMDAIHQQDFVNWLLAQK-NH2 (SMILES CC[C@H](C)[C@H](NC(=O)[C@H](C)NC(=O)[C@H](CC(=O)O)NC(=O)[C@H](CCSC)NC(=O)[C@H](C)NC(=O)[C@@H](NC(=O)[C@H](CO)NC(=O)[C@H](Cc1ccc(O)cc1)NC(=O)[C@H](CC(=O)O)NC(=O)[C@H](CO)NC(=O)[C@@H](NC(=O)[C@H](Cc1ccccc1)NC(=O)[C@@H](NC(=O)CNC(=O)[C@H](CCC(=O)O)NC(=O)[C@H](C)NC(=O)[C@@H](Cc1ccc(O)cc1)NC(C)=O)[C@@H](C)O)[C@@H](C)CC)[C@@H](C)CC)C(=O)N[C@@H](Cc1c[nH]cn1)C(=O)N[C@@H](CCC(N)=O)C(=O)N[C@@H](CCC(N)=O)C(=O)N[C@@H](CC(=O)O)C(=O)N[C@@H](Cc1ccccc1)C(=O)N[C@H](C(=O)N[C@@H](CC(N)=O)C(=O)N[C@@H](Cc1c[nH]c2ccccc12)C(=O)N[C@@H](CC(C)C)C(=O)N[C@@H](CC(C)C)C(=O)N[C@@H](C)C(=O)N[C@@H](CCC(N)=O)C(=O)N[C@@H](CCCCN)C(N)=O)C(C)C) |  |  | isolated mass ([1]; 1:1 TFA): 80 mg; isolated yield ([1]; 1:1 TFA): 9%
DesNH2-Phe-Ala-Glu-Gly-Thr-Phe-Ile-Ser-Asp-Tyr-Ser-Ile-Ala-Met-Asp-Lys-Ile-His-Gln-Gln-Asp-Phe-Val-Asn-Trp-Leu-Leu-Ala-Gln-Lys-NH2 | 120 mg | 12.7% | 

For part of these data: One purity is given for all peptides; the source may state it once. Non-standard residues stand in square brackets, D forms with d.
